These are yes or no findings as the source states them, for the method shown. In cells and extracts the contact can be indirect. Some entries that bind do so weakly or less than the wild type. For part of these data: Tags and fused reporters may be left off the sequences shown.
Legend:
[1] = target: T1, LGR5 with a C-terminal HA-tag (UniProt O75473); assay: pull-down
T1 sequence: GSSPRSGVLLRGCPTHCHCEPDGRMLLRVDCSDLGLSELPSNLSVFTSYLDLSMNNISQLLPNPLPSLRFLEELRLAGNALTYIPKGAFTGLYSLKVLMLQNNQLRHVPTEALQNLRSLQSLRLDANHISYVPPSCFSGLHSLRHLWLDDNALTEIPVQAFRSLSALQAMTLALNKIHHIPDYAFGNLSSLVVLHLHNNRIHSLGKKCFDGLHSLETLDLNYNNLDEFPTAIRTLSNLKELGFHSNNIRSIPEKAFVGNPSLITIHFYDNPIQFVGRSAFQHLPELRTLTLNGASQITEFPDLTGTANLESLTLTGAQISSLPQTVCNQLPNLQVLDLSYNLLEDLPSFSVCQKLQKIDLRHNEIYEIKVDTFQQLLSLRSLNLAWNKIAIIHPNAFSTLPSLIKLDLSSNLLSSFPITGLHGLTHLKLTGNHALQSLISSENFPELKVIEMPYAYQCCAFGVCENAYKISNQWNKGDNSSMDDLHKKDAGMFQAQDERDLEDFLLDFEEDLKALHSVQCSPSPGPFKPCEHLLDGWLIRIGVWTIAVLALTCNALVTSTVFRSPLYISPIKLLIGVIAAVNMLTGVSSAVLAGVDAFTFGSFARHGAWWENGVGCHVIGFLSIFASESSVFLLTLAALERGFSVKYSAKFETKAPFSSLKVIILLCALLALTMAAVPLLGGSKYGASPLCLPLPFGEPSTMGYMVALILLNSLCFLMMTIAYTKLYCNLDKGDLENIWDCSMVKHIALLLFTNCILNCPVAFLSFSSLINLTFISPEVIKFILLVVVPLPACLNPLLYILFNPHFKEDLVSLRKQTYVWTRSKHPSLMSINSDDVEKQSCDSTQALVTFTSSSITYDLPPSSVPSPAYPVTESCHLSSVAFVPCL

Sequences of proteins named here, by UniProt entry; tags and fusion partners are left off.
UniProt Q02248: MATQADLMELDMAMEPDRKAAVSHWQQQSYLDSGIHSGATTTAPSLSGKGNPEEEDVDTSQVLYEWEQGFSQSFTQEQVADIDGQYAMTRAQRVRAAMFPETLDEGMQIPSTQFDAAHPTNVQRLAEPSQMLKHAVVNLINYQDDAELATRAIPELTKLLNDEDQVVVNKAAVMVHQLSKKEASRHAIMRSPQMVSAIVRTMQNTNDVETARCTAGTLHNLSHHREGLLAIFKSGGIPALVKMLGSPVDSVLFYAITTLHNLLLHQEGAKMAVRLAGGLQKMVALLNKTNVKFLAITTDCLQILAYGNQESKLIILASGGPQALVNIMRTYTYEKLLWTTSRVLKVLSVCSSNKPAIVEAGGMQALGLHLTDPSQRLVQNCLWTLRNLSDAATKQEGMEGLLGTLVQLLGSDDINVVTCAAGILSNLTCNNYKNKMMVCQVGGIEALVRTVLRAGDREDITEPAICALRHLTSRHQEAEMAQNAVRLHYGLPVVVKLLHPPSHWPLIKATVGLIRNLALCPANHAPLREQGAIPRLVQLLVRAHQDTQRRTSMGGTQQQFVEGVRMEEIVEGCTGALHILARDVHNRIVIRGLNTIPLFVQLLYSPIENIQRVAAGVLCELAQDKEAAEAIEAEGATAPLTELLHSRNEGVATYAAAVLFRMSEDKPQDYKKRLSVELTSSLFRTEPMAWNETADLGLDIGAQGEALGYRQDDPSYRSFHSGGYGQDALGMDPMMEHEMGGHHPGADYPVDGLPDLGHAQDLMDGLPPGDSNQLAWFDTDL
UniProt P32121: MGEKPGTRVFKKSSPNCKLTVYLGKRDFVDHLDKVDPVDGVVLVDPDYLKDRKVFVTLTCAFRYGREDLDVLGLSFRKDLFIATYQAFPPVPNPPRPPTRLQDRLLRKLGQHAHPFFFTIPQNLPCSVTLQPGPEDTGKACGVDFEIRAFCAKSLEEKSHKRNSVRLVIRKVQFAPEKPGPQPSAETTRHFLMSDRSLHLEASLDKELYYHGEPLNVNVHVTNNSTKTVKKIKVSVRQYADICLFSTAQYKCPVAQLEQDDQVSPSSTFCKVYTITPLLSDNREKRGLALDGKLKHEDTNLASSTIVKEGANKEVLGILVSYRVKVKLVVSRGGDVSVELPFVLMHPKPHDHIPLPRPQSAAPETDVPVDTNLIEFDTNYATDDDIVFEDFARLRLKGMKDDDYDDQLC
UniProt Q2M2I8: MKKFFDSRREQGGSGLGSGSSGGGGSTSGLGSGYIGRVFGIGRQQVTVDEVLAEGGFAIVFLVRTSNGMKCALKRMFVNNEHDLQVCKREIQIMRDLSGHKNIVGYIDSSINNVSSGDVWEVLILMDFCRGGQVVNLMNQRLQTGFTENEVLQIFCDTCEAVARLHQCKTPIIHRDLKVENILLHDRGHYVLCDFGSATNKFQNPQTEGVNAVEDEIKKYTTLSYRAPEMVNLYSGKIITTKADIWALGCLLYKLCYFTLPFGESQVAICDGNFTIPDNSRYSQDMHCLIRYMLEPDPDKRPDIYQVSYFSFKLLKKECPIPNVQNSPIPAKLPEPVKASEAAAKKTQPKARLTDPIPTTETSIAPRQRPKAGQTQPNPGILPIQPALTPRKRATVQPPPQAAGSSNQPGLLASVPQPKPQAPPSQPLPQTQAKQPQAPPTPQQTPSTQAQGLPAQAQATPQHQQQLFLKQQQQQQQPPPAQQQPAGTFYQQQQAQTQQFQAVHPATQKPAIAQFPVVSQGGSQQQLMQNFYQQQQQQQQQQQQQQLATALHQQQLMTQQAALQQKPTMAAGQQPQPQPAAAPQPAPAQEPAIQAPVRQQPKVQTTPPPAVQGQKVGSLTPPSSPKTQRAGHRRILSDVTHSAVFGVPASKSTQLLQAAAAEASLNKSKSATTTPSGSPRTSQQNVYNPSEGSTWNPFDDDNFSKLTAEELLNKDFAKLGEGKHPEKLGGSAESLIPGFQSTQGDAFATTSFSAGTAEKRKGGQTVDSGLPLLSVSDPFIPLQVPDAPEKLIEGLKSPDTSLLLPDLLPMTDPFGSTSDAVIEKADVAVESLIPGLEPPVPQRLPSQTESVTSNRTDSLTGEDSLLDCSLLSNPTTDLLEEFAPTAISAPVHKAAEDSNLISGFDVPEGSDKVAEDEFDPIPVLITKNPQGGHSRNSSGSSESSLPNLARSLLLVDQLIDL
UniProt Q03267: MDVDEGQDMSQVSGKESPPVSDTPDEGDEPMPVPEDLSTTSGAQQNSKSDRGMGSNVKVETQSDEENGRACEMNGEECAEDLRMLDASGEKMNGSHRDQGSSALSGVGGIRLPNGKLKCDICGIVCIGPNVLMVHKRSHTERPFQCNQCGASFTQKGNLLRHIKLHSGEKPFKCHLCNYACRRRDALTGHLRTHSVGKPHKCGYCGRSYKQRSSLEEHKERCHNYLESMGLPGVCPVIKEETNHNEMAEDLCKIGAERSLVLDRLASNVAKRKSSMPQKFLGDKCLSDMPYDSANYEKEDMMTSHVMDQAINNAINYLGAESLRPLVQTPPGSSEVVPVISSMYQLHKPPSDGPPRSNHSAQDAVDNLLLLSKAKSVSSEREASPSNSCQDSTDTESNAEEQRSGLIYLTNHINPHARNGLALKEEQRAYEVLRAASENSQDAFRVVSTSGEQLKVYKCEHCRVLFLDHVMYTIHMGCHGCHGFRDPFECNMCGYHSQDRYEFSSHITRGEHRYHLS

[2] = target: FLAG-tagged β-catenin (mouse) (UniProt Q02248); assay: co-IP

Substance: β-arrestin (ARRB2) (from UniProt P32121 1-409)
- binding [1]: binds

Substance: AAK1 (from UniProt Q2M2I8 1-961)
- binding [1]: binds

Substance: Ikzf1 (Ikaros) (from UniProt Q03267 1-517)
- binding [2]: binds

Reference: article doi:10.1101/2020.03.12.989277
